Results from paper doi:10.1101/2025.07.15.664932.
Results are given in words; binding and its absence hold for the method and conditions named. Some binding calls cover weakened binding; strength is not graded here. Sequences can lack the tags named with a protein.

Target: T1, full-length yeast Naa15/Nat1 with an N-terminal 6xHis tag (yeast) (UniProt P12945)
T1 sequence: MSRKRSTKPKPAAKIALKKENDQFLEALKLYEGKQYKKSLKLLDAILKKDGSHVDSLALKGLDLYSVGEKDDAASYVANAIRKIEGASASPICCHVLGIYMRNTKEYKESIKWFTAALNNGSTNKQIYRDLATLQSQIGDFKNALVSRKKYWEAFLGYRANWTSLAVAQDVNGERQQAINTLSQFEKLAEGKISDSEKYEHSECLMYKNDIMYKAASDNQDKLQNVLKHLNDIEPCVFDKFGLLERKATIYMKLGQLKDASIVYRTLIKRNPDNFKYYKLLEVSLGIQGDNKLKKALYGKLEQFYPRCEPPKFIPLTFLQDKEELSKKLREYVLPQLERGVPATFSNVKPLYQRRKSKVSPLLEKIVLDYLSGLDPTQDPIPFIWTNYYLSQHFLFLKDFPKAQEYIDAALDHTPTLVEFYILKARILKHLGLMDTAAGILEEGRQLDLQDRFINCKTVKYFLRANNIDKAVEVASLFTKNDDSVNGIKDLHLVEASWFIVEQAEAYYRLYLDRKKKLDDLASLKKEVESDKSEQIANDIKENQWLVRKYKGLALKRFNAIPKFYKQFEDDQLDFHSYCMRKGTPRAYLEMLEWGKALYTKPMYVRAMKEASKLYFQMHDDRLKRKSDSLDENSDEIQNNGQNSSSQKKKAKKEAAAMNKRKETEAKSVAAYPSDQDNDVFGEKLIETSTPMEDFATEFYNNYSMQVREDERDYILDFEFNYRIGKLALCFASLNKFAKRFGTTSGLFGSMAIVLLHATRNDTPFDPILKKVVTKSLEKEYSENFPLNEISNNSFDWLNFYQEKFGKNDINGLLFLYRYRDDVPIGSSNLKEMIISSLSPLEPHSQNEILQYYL
Experiment: co-purification

B1: yeast Naa10/Ard1 residues 1-226 (domain or fragment, UniProt P07347 1-226)
chain: MPINIRRATINDIICMQNANLHNLPENYMMKYYMYHILSWPEASFVATTTTLDCEDSDEQDENDKLELTLDGTNDGRTIKLDPTYLAPGEKLVGYVLVKMNDDPDQQNEPPNGHITSLSVMRTYRRMGIAENLMRQALFALREVHQAEYVSLHVRQSNRAALHLYRDTLAFEVLSIEKSYYQDGEDAYAMKKVLKLEELQISNFTHRRLKENEEKLEDDLESDLLE
binding: binds
